# For part of these data: End groups of sequences in plain letters are not given here.
# Assays:
# [1] = general procedure: Fmoc solid-phase peptide synthesis; Fmoc-Ala-Wang resin; Fmoc-Cys(Trt)-CTC resin; HBTU / N-methylmorpholine; settings: TFA salt
# [2] = general procedure: Fmoc solid-phase peptide synthesis; Fmoc-Ala-Wang resin; HBTU / N-methylmorpholine; settings: whole synthesis, scale 5 mmol, TFA salt
# [3] = general procedure: Fmoc solid-phase peptide synthesis; Fmoc-Cys(Trt)-CTC resin; HBTU / N-methylmorpholine; settings: whole synthesis, HPLC (HP1090, Phenomenex C18), UV 220 nm, scale of the general procedure 1.0 mmol, 5 mmol, TFA salt
# [4] = whole synthesis, HPLC (HP1090, Phenomenex C18), UV 220 nm, scale of the general procedure 1.0 mmol, 5 mmol
# [5] = whole synthesis, 220 nm, scale of the general procedure 1.0 mmol, 5 mmol
# [6] = late stage modification step, 220 nm
substance,measurement,setting,value
Ac-Cys-PEG-Gly-Leu-Phe-His-Ala-Leu-Leu-His-Leu-Leu-His-Ser-Leu-Trp-His-Leu-Leu-Leu-His-Ala-OH,final HPLC purity,[1]; [4],85% by HPLC
Ac-CGLFHALLHLLHSLWHLLLHA-OH,final HPLC purity,[1]; [4],90% by UV
Ac-Cys(NPys)-PEG-WEAKLAKALAKALAKHLAKALAKALKASEA,final HPLC purity,[1]; [5],95.1%
CWEAKLAKALAKALAKHLAKALAKALKACEA,final HPLC purity,[1]; [5],97.2%
WEAKLAKALAKALAKHLAKALAKALKASEA-Cys(NPys)-OH,final HPLC purity,[1]; [5],95.8%
Ac-Cys(NPys)-GLFHALLHLLHSLWHLLLHA,final HPLC purity,[1]; [6],95.6%
same,step yield,[1]; late stage modification step,66%
Ac-Cys(NPys)-PEG3-GLFHALLHLLHSLWHLLLHA,final HPLC purity,[1]; [6],95.4%
same,step yield,[1]; late stage modification step,27%
GLFHALLHLLHSLWHLLLHAC,final HPLC purity,[1]; [5],95.3%
GLFHALLHLLHSLWHLLLHA,final HPLC purity,[1]; [5],95.4%
same,isolated mass,[2],5.18 g
Ac-Gly(propargyl)-GLFHALLHLLHSLWHLLLHA,final HPLC purity,[1]; [5],95.4%
H-GLFHALLHLLHSLWHLLLHAC-OH,final HPLC purity,[3],75% by HPLC
Ac-Cys-dPEG4-GLFHALLHLLHSLWHLLLHA,final HPLC purity,[1]; [5],95.3%
Ac-CGLFHALLHLLHSLWHLLLHA,final HPLC purity,[1]; [5],95.6%
SPDP-dPEG8-GLFHALLHLLHSLWHLLLHA,conjugation yield,[1]; conjugation step,40%
WEAKLAKALAKALAKHLAKALAKALKACEA,final HPLC purity,[1]; [5],95.6%
Ac-Cys(NPys)-WEAKLAKALAKALAKHLAKALAKALKASEA,final HPLC purity,[1]; [5],95.7%
GLFHALLHLLHSLWHLLLHA-Cys(NPys)-OH,final HPLC purity,[1]; [6],95.3%
same,step yield,[1]; late stage modification step,25%
